Measurements published in PubChem BioAssay AID493014 (National Center for Advancing Translational Sciences (NCATS), 2011).
About 170 (0.05%) of roughly 340,000 compounds were called active. Inconclusive means that the source gave no clear call. Such entries were picked first, then a sample of the others. The call rests on the fitted dose curve; in most records, active means well fitted inhibition curve with a large enough effect in the signal ratio, with a control signal flat (not every such curve was filed as active); inconclusive means small, poorly fitted or top-dose-only effect, or effect the other way, or a change in a side signal; inactive means flat fitted curve, though single readings scatter; the % refers to the signal ratio. Where the call is inconclusive, the potency comes from a doubtful curve fit.
Potency means the concentration at half of the fitted maximal effect.

Assay: qHTS Assay to Find Inhibitors of Chronic Active B-Cell Receptor Signaling;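 on activity change, negative = inhibition: plate controls were basal doxycycline-induced cells for no effect and cells given 10 µM MG132 for full effect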
Settings: ABC-DLBCL IkBa-CBG/CBR reporter, luminescence ratio (green luciferase fused to IkBa over red control in TMD8 lymphoma cells), 4 h; activity change, negative = inhibition: at 46.1 µM (top of the series)
How it was run: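 Compounds up to 46 uM were incubated four hours with TMD8 cells whose green CBG68 luciferase is fused to IkappaBalpha; red CBR luminescence normalised the signal, and concentration-effect curves were fitted to fusion, red and ratio data.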
In the case of CCOc1ccc(-c2cc(C(=O)N/N=C/c3cccnc3)c3ccccc3n2)cc1, the activity change, negative = inhibition was “inactive”. In the case of O=C(O)c1cccc2c1C(=O)c1ccccc1C2=O, the activity change, negative = inhibition was “inactive”. For CN1CCN(CCCCC(=O)c2ccccc2)CC1, the activity change, negative = inhibition was “inactive”. For Cc1cc(C)cc(N(CC(=O)NC2CCCC2)C(=O)CCC(=O)Nc2cc(C)ccn2)c1, the activity change, negative = inhibition was inconclusive: -0.474%. For O=C(NC(=S)Nn1cnnc1)c1ccccc1Br, the activity change, negative = inhibition was inconclusive: -19.9%. For COc1cc(CN2CC(=O)N(c3cc(Cl)ccc3C)C2=S)cc(OC)c1OC, the activity change, negative = inhibition was “inactive”. For CCOC(=O)c1sc(NC(=O)CSc2nnc(Cc3ccccc3)o2)c(C(=O)OCC)c1C, the Potency was inconclusive: 16.4 µM [rising, partial curve, poor fit]. For COc1cc(NC(=O)CC(C)S(=O)(=O)c2cc3c(cc2C)NC(=O)CO3)cc(OC)c1OC (stereo unspecified), the activity change, negative = inhibition was inconclusive: -3.62%. In the case of CCOC(=O)c1sc(NS(=O)(=O)c2ccccc2)nc1C, the activity change, negative = inhibition was “inactive”. In the case of CCN(CC)c1nc(N2CCN(CCO)CC2)nc2ccccc12, the activity change, negative = inhibition was “inactive”. In the case of O=C(N/N=C/c1cccs1)C(=O)Nc1cccc(Cl)c1, the Potency was inconclusive: 15.8 µM [falling, single point]. With O=C(Oc1ccc(F)cc1)c1cccnc1 the activity change, negative = inhibition was inconclusive: 11.1%. With COc1ccc(Cl)c(OC)c1C(=O)NC(=O)Nc1nc(C)nc(C)n1 the activity change, negative = inhibition was inconclusive: 0.306%. With CCn1cc(C(=O)OCC(=O)c2cc(C)n(-c3ccccc3F)c2C)c(=O)c2ccc(C)nc21 the activity change, negative = inhibition was inconclusive: -7.05%. In the case of O=c1c(Cl)c(NCCCO)cnn1-c1nc2ccccc2[nH]1, the Potency was inconclusive: 5.62 µM [falling, single point]. With c1cc(Nc2ncnc3sc4c(c23)CCC4)ccn1 the activity change, negative = inhibition was “inactive”. In the case of Cc1cc(C(=O)NNC(=O)c2ccccc2[N+](=O)[O-])c(C)o1, the activity change, negative = inhibition was inconclusive: -16.5%. For Cc1ccccc1NC(=O)CN1CCC(C(=O)c2ccc3c(c2)OCCO3)CC1, the Potency was inconclusive: 17.8 µM [falling, single point]. For Cn1c(SCC(=O)O)nc2ccccc2c1=O, the activity change, negative = inhibition was inconclusive: -1.13%. With COc1ccc(/C=C2\SC(=S)N(CC(=O)NC3C=CS(=O)(=O)C3)C2=O)cc1 (stereo unspecified) the activity change, negative = inhibition was “inactive”. In the case of O=C(Nc1ccnn1C1CCN(CCCC2CCCC2)CC1)c1ccccc1, the activity change, negative = inhibition was “inactive”. For COc1ccc(N(C(=O)Nc2ccc(Cl)cc2)C2=NCCC2)cc1, the activity change, negative = inhibition was inconclusive: 16.8%. For Cc1ccc(NC(=O)c2cc(S(=O)(=O)N3CCCCC3)cs2)cc1, the activity change, negative = inhibition was inconclusive: 7.8%. In the case of O=C(NNC(=S)Nc1ccccc1)c1cc(Br)ccc1Cl, the activity change, negative = inhibition was inconclusive: -13.6%. With CN(C)/C=C/c1c([N+](=O)[O-])c2ccc(O)cc2n1-c1ccccc1 the activity change, negative = inhibition was inconclusive: -6.55%. In the case of Cc1ccc(NS(=O)(=O)c2ccc(-n3cccn3)cc2)cc1C, the activity change, negative = inhibition was “inactive”. With Cn1c(=O)c2c(nc(CN3CCCCC3)n2CCc2ccccc2)n(C)c1=O the activity change, negative = inhibition was “inactive”. In the case of COC(=O)c1sc(N2C(=O)C(=O)/C(=C(/O)c3ccccc3)C2c2ccco2)nc1C (stereo unspecified), the activity change, negative = inhibition was inconclusive: -2.03%. With CC(C)(C)c1csc(N/N=C/c2cccnc2)n1 the Potency was inconclusive: 25.1 µM [falling, single point]. With COC(=O)c1cn(C(=O)/C=C/c2ccc(OC)c(OC)c2)c2ccccc12 the Potency was inconclusive: 12.6 µM [falling, partial curve, poor fit]. For CCCn1c(=O)c2c(c3ccccc31)OC(C)C(=O)N2 (stereo unspecified), the activity change, negative = inhibition was inconclusive: -0.339%. With CC1CN(CC(O)COc2ccccc2C(C)(C)C)CC(C)O1 (stereo unspecified) the Potency was inconclusive: 18.4 µM [falling, single point]. In the case of Cc1c(C(=O)N/N=C/c2ccncc2)no[n+]1[O-], the activity change, negative = inhibition was inconclusive: 10.1%. For O=[N+]([O-])c1ccc(COn2nnc3ccccc32)cc1, the activity change, negative = inhibition was inconclusive: -5.99%. For COc1cc2c(cc1OC)CN(c1ccc(C(F)(F)F)cn1)CC2, the activity change, negative = inhibition was “inactive”. For C/C(=N/NC(=O)c1cc2ccccc2cc1O)C1C(=O)c2ccccc2C1=O, the Potency was inconclusive: 9.2 µM [falling, partial curve, poor fit]. For CCOC(CNC(=O)Cn1nc(C)c2ccccc21)OCC, the activity change, negative = inhibition was “inactive”. In the case of COc1ccc(/C=N/Nc2cc(OC)ncn2)cc1, the activity change, negative = inhibition was inconclusive: -1.4%. With CCOc1ccc(N(CC(=O)NCCSCc2ccccc2Cl)S(C)(=O)=O)cc1 the activity change, negative = inhibition was “inactive”. With O=C(CN1C(=O)NC2(CCOc3ccccc32)C1=O)Nc1ccc2c(c1)OCCO2 (stereo unspecified) the Potency was inconclusive: 3.26 µM [rising, single point]. With COCCN(C(=O)CN1CCc2ccccc2C1)c1c(N)n(Cc2ccccc2)c(=O)[nH]c1=O the Potency was inconclusive: 35.5 µM [falling, single point]. In the case of COc1ccccc1NS(=O)(=O)NC(=O)c1c(C)[nH]c2ccccc12, the Potency was inconclusive: 35.5 µM [rising, single point]. In the case of O=C(c1ccccc1)c1c(O)cc(-c2ccccc2)oc1=O, the Potency was inconclusive: 18.4 µM [falling, single point]. For O=C(Nc1ccc(S(=O)(=O)N2CCCC2)cc1)c1ccc2c(=O)n3c(nc2c1)CCCCC3, the activity change, negative = inhibition was inconclusive: -8.69%. In the case of COC(=O)c1cc(CNC(=O)c2ccc(N3CCCC3)c([N+](=O)[O-])c2)ccc1OC, the activity change, negative = inhibition was inconclusive: -0.729%. For Cc1cc(C)cc(NC(=S)NCc2ccc(S(N)(=O)=O)cc2)c1, the activity change, negative = inhibition was “inactive”. For CCN1C(=O)C(CC(=O)Nc2ccccc2)S/C1=N\c1ccccn1 (stereo unspecified), the activity change, negative = inhibition was inconclusive: 2.9%. With COc1ccccc1-n1cnnc1SCC(=O)Nc1ncc(Cl)cc1Cl the Potency was inconclusive: 12.6 µM [falling, partial curve]. For Cc1ccc(NC(=O)c2ccc(S(=O)(=O)N3CCC(C)CC3)cc2)nc1, the activity change, negative = inhibition was inconclusive: -1.16%. With Cc1ccn2c(c1)nc(=O)c1cc(S(=O)(=O)N3CCCCC3)ccc12 the Potency was inconclusive: 3.16 µM [rising, single point]. With COC(=O)C1C(c2ccc(OC)cc2)Nc2nnc(C(F)(F)F)n2C1(C)O (stereo unspecified) the activity change, negative = inhibition was inconclusive: -4.07%. For CCCOc1ccc(-c2nc(OCC)c3ccccc3n2)cc1, the activity change, negative = inhibition was “inactive”. With C=C(C)CSc1nc2c(c(=O)[nH]c(=O)n2C)n1CCC(C)C the activity change, negative = inhibition was inconclusive: 28.4%. For COc1ccc2nc(NC(=O)Cn3cnc4ccccc4c3=O)sc2c1, the activity change, negative = inhibition was inconclusive: 1.47%. With CCc1cc(=O)oc2c(CNCc3ccc(OC)cc3OC)c(O)c(Cl)cc12 the activity change, negative = inhibition was “inactive”. With CCc1ccc(NC(=O)Cc2c(C(=O)O)n(C)c3ccccc23)cc1 the activity change, negative = inhibition was inconclusive: 10.2%. For COc1ccc(OC)c(NC(=O)c2cc(-c3cc(C)ccc3O)n[nH]2)c1, the Potency was inconclusive: 6.31 µM [falling, partial curve, poor fit]. For Cc1cccc(C)c1NC1=NC(C)(C)N=C(N)N1, the activity change, negative = inhibition was inconclusive: -1.15%. For Cc1c(CCC(=O)N[C@@H](C)C(=O)O)c(=O)oc2cc3oc4c(c3cc12)CCCC4, the Potency was inconclusive: 17.8 µM [falling, partial curve]. For CCOC(=O)c1c(NC(=O)Nc2ccc(F)cc2)sc2c1CCN(C)C2, the activity change, negative = inhibition was inconclusive: -0.688%. With CCN1CCN(c2nc(N)c([N+](=O)[O-])c(Nc3ccc(C)c(C)c3)n2)CC1 the activity change, negative = inhibition was “inactive”. In the case of COC(=O)c1ccccc1NC(=S)NC(NC(=O)c1ccco1)C(Cl)(Cl)Cl (stereo unspecified), the activity change, negative = inhibition was inconclusive: -0.266%. In the case of CC1=NN(C(=O)c2csc(C)c2C)C(O)(C(F)(F)F)C1 (stereo unspecified), the Potency was inconclusive: 29.1 µM [falling, single point]. In the case of O=C(O)c1cc([N+](=O)[O-])ccc1C(=O)Nc1cccc([N+](=O)[O-])c1, the activity change, negative = inhibition was inconclusive: 2.37%. For CCn1c2ccccc2c2cc(NC(=O)CN(C)CC(=O)Nc3ccc(N4CCOCC4)cc3)ccc21, the activity change, negative = inhibition was “inactive”. With O=C(COCc1ccccc1)N[C@@H]1c2ccccc2CC[C@H]1OCc1ccccc1 the Potency was inconclusive: 18.4 µM [falling, partial curve, poor fit]. In the case of Cc1cc(C)c(O)c(NC(=S)NC(=O)Cc2ccccc2)c1, the activity change, negative = inhibition was “inactive”. With COc1cccc(N=Nc2c(N)[nH]n3c(=O)cc(-c4ccccc4)nc23)c1 the Potency was inconclusive: 1.26 µM [falling, full curve]. For O=c1c(-c2ccccc2)nc(-c2ccccc2)cn1O, the activity change, negative = inhibition was inconclusive: 4.87%. With O=C(Nc1nccs1)c1cccc(NC(=O)C(F)(F)F)c1 the activity change, negative = inhibition was inconclusive: 6.48%. In the case of O=C(Nc1ccccc1F)c1ccc(O)c2ncccc12, the Potency was inconclusive: 18.4 µM [falling, partial curve]. With Cn1cccc1Cc1nnc(SCC(=O)Nc2cccc(Cl)c2)n1-c1ccc(F)cc1 the activity change, negative = inhibition was inconclusive: 3.81%. For CNC(=S)NNC(=O)Cc1ccccc1, the activity change, negative = inhibition was “inactive”. For O=C(NC1CCCC(C(F)(F)F)C1)c1ccc([N+](=O)[O-])o1 (stereo unspecified), the activity change, negative = inhibition was “inactive”. For O=C(CSc1n[nH]c(=O)n1C1CC1)Nc1ccc(F)c([N+](=O)[O-])c1, the activity change, negative = inhibition was inconclusive: -4.83%. In the case of CC(C)(C)N=C1NN=C(c2ccc(Cl)cc2)CS1, the Potency was inconclusive: 22.4 µM [falling, partial curve]. In the case of O=C(CCl)NNC(=O)c1c(O)c2ccccc2[nH]c1=O, the Potency was inconclusive: 20 µM [falling, single point]. In the case of CC(=O)C1=C(C)NC(SCC(=O)Nc2nc3ccccc3s2)=C(C#N)C1c1ccc(Cl)cc1 (stereo unspecified), the activity change, negative = inhibition was inconclusive: -0.0018%. For CCNC(=S)N/N=C/c1cc(C)ccc1C, the Potency was inconclusive: 23.1 µM [falling, single point]. For COCc1c(C(=O)N/N=C(/C)c2ccc(OCc3ccccc3)cc2)nnn1-c1nonc1N, the activity change, negative = inhibition was inconclusive: 8.91%. With O=C(CN1C(=O)/C(=C\c2ccccc2Cl)Sc2ccccc21)NCCCN1CCOCC1 the activity change, negative = inhibition was “inactive”.
